Data taken from US20240376154A1 (ZYMEWORKS BC INC., priority 2023, published 2024).

assay: general procedure: Fmoc solid-phase peptide synthesis; 2-chlorotrityl resin (Chempep, 0.81 mmol/g); conditions: conjugation step

Substance | conjugation yield [% yield]
3-((4-((14S,17S)-1-(2,5-dioxo-2,5-dihydro-1H-pyrrol-1-yl)-14-isopropyl-12,15-dioxo-17-(3-ureidopropyl)-3,6,9-trioxa-13,16-diazaoctadecan-18-amido)benzyl)oxy)-N-((7R,11S,19aS,26R,30S,38aS)-26-(3-hydroxyquinoline-2-carboxamido)-11,30-diisopropyl-12,15,31,34-tetramethyl-6,10,13,16,19,25,29,32,35,38-decaoxohexatriacontahydro-2H,6H-dipyrido[1,2-a:1′,2′-q][1,4,7,10,13,17,20,23,26,29]decaazacyclodotriacontin-7-yl)quinoline-2-carboxamide | 58
(2S,3S,4S,5R,6S)-6-((2-(((7R,11S,19aS,26R,30S,38aS)-11,30-di((S)-sec-butyl)-26-(3-((4-((14S,17S)-1-(2,5-dioxo-2,5-dihydro-1H-pyrrol-1-yl)-14-isopropyl-12,15-dioxo-17-(3-ureidopropyl)-3,6,9-trioxa-13,16-diazaoctadecan-18-amido)benzyl)oxy)quinoline-2-carboxamido)-12,15,31,34-tetramethyl-6,10,13,16,19,25,29,32,35,38-decaoxohexatriacontahydro-2H,6H-dipyrido[1,2-a:1′,2′-q][1,4,7,10,13,17,20,23,26,29]decaazacyclodotriacontin-7-yl)carbamoyl)quinolin-3-yl)oxy)-3,4,5-trihydroxytetrahydro-2H-pyran-2-carboxylic acid | 54
(2S,3S,4S,5R,6S)-6-((2-(((7R,11S,19aS,26R,30S,38aS)-7-(3-((4-((14S,17S)-1-(2,5-dioxo-2,5-dihydro-1H-pyrrol-1-yl)-14-isopropyl-12,15-dioxo-17-(3-ureidopropyl)-3,6,9-trioxa-13,16-diazaoctadecan-18-amido)benzyl)oxy)quinoline-2-carboxamido)-11,30-diisopropyl-12,15,31,34-tetramethyl-6,13,16,19,25,29,32,35,38-nonaoxotetratriacontahydro-2H,6H,10H-dipyrido[2,1-b1: 2′,1′-l][1]oxa[4,7,10,13,17,20,23,26,29]nonaazacyclodotriacontin-26-yl)carbamoyl)quinolin-3-yl)oxy)-3,4,5-trihydroxytetrahydro-2H-pyran-2-carboxylic acid | 47
(2S,3S,4S,5R,6S)-6-((2-(((5aS,9R,15aS,24S,28R,34aS)-9-(3-((4-((14S,17S)-1-(2,5-dioxo-2,5-dihydro-1H-pyrrol-1-yl)-14-isopropyl-12,15-dioxo-17-(3-ureidopropyl)-3,6,9-trioxa-13,16-diazaoctadecan-18-amido)benzyl)oxy)quinoline-2-carboxamido)-24-isopropyl-20,23,39-trimethyl-6,10,16,19,22,25,29,35,38,41-decaoxotetracontahydro-1H,12H-azepino[1,2-j]dipyrido[1,2-a:1′,2′-q][1,4,7,10,13,17,20,23,26,29]decaazacyclodotriacontin-28-yl)carbamoyl)quinolin-3-yl)oxy)-3,4,5-trihydroxytetrahydro-2H-pyran-2-carboxylic acid | 58

same assay, conditions: cyclisation step

Substance | cyclisation yield
Benzyl tert-butyl ((7R,10aS,22aS,29R,32aS,44aS)-6,10,16,22,28,32,38,44-octaoxotetracontahydro-2H,19H-tetrapyrido[1,2-a1: 1′,2′-d: 1″,2″-k: 1′″,2′″-t][1,17]dioxa[4,7,11,14,20,23,27,30]octaazacyclodotriacontine-7,29-diyl)dicarbamate | 44% yield
Benzyl tert-butyl ((7R,11S,19aS,26R,30S,38aS)-11,30-diisopropyl-12,15,31,34-tetramethyl-6,10,13,16,19,25,29,32,35,38-decaoxotetratriacontahydro-2H,6H,10H-dipyrido[2,1-b1: 2′,1′-l][1]oxa[4,7,10,13,17,20,23,26,29]nonaazacyclodotriacontine-7,26-diyl)dicarbamate | 63% yield
Di-tert-butyl ((7R,8R,11S,19aS,26R,27R,30S,38aS)-11,30-diisopropyl-8,12,15,27,31,34-hexamethyl-6,10,13,16,19,25,29,32,35,38-decaoxodotriacontahydro-2H,6H,10H,25H-dipyrido[2,1-b1: 2′,1′-l][1,17]dioxa[4,7,10,13,20,23,26,29]octaazacyclodotriacontine-7,26-diyl)dicarbamate | 50% yield
Benzyl N-[(3R,7S,20S,27R,31S,44S)-27-[(tert-butoxycarbonyl)amino]-15,39-dimethyl-2,6,13,16,19,26,30,37,40,43-decaoxo-1,5,12,15,18,25,29,36,39,42-decaazapentacyclo[42.4.0.0^7,12.0^20,25.0^31,36]octatetracontan-3-yl]carbamate | 40%
di-tert-butyl ((7R,11S,19aS,26R,30S,38aS)-11,30-diisopropyl-12,15,31,34-tetramethyl-6,10,13,16,19,25,29,32,35,38-decaoxohexatriacontahydro-2H,6H-dipyrido[1,2-a:1′,2′-q][1,4,7,10,13,17,20,23,26,29]decaazacyclodotriacontine-7,26-diyl)dicarbamate | 34% yield

same assay, conditions: late stage modification step

Substance | step yield
N,N′-((7R,11S,19aS,26R,30S,38aS)-11,30-di((S)-sec-butyl)-12,15,31,34-tetramethyl-6,10,13,16,19,25,29,32,35,38-decaoxohexatriacontahydro-2H,6H-dipyrido[1,2-a:1′,2′-q][1,4,7,10,13,17,20,23,26,29]decaazacyclodotriacontine-7,26-diyl)bis(6-bromo-3-hydroxyquinoline-2-carboxamide) | 54%
N,N′-((7R,11S,19aS,26R,30S,38aS)-11,30-diisopropyl-12,15,31,34-tetramethyl-6,10,13,16,19,25,29,32,35,38-decaoxohexatriacontahydro-2H,6H-dipyrido[1,2-a:1′,2′-q][1,4,7,10,13,17,20,23,26,29]decaazacyclodotriacontine-7,26-diyl)bis(3-hydroxyquinoline-2-carboxamide) | 86% yield
(7′R,19a'S,26′R,30'S,38a'S)-7′-(((benzyloxy)carbonyl)amino)-30′-isopropyl-12′,15′,31′,34′-tetramethyl- | 45% yield
N,N′-((7R,11S,19aS,26R,30S,38aS)-11,30-diisopropyl-12,15,31,34-tetramethyl-6,10,13,16,19,25,29,32,35,38-decaoxotetratriacontahydro-2H,6H,10H-dipyrido[2,1-b1: 2′,1′-l][1]oxa[4,7,10,13,17,20,23,26,29]nonaazacyclodotriacontine-7,26-diyl)bis(3-(benzyloxy)quinoline-2-carboxamide) | 47% yield
N,N′-((7R,11S,19aS,26R,30S,38aS)-15,34-diethyl-11,30-diisopropyl-12,31-dimethyl-6,10,13,16,19,25,29,32,35,38-decaoxohexatriacontahydro-2H,6H-dipyrido[1,2-a:1′,2′-q][1,4,7,10,13,17,20,23,26,29]decaazacyclodotriacontine-7,26-diyl)bis(3-hydroxyquinoline-2-carboxamide) | 33% yield
(7R,11S,19aS,26R,38aS)-26-(((benzyloxy)carbonyl)amino)-11-isopropyl-12,15,30,30,31,34-hexamethyl- | 45% yield
N,N′-((7R,11S,19aS,26R,30S,38aS)-11,30-diisopropyl-9,12,15,28,31,34-hexamethyl-6,10,13,16,19,25,29,32,35,38-decaoxohexatriacontahydro-2H,6H-dipyrido[1,2-a:1′,2′-q][1,4,7,10,13,17,20,23,26,29]decaazacyclodotriacontine-7,26-diyl)bis(3-hydroxyquinoline-2-carboxamide) | 69% yield
N,N′-((7R,11S,19aS,26R,30S,38aS)-11,30-diisopropyl-12,31-dimethyl-6,10,13,19,25,29,32,38-octaoxodotriacontahydro-2H,6H,16H,25H-dipyrido[1,2-a1: 1′,2′-k][1,17]dioxa[4,7,11,14,20,23,27,30]octaazacyclodotriacontine-7,26-diyl)bis(3-hydroxyquinoline-2-carboxamide) | 75% yield
N,N′-((7R,8R,11S,19aS,26R,27R,30S,38aS)-11,30-diisopropyl-8,12,15,27,31,34-hexamethyl-6,10,13,16,19,25,29,32,35,38-decaoxodotriacontahydro-2H,6H,10H,25H-dipyrido[2,1-b1: 2′,1′-l][1,17]dioxa[4,7,10,13,20,23,26,29]octaazacyclodotriacontine-7,26-diyl)bis(3-(benzyloxy)quinoline-2-carboxamide) | 100% yield

same assay, conditions: late stage modification step, monotrifluoroacetate salt

Substance | step yield [% yield]
(7R,19aS,26R,30S,38aS)-7,26-diamino-30-isopropyl-11,11,12,15,31,34-hexamethyltetracosahydro-2H,6H-dipyrido[1,2-a:1′,2′-q] | 85

same assay, conditions: whole synthesis

Substance | crude mass [g] | crude yield
(S)-1-((9S,13R)-1-((S)-1-((R)-3-((S)-2-(2-(2-amino-N-methylacetamido)-N-methylacetamido)-3-methylbutanamido)-2-(((benzyloxy)carbonyl)amino)propanoyl) piperidin-2-yl)-13-((tert-butoxycarbonyl)amino)-9-isopropyl-5,8-dimethyl-1,4,7,10-tetraoxo-2,5,8,11-tetraazatetradecan-14-oyl) piperidine-2-carboxylic acid | 1 | 80%
(S)-1-((R)-2-(((benzyloxy)carbonyl)amino)-3-((S)-1-(N—(((S)-1-((R)-2-((tert-butoxycarbonyl)amino)-3-((S)-1-(N-glycyl-N-methylglycyl) azepane-2-carboxamido) propanoyl)piperidine-2-carbonyl)glycyl)-N-methylglycyl) azepane-2-carboxamido) propanoyl)piperidine-2-carboxylic acid | – | 77% yield

same assay, conditions: whole synthesis, scale 0.4 mmol

Substance | crude mass [g] | crude yield [% yield]
(S)-1-(O—(N—(N—(((S)-1-((R)-3-((S)-2-(2-(2-amino-N-methylacetamido)-N-methylacetamido)-3-methylbutanamido)-2-(((benzyloxy)carbonyl) amino)propanoyl)piperidine-2-carbonyl)glycyl)-N-methylglycyl)-N-methyl-L-valyl)-N-(tert-butoxycarbonyl)-D-seryl) piperidine-2-carboxylic acid | 0.32 | 71
